Measured values as given in the supplement of paper PMC12889115.
This is one part of the list. These are raw signals, not scaled to a control.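 First-pass screen: polymyxin B was added at a level that permeabilizes the Salmonella outer membrane while sparing the inner membrane. DMSO wells, with and without polymyxin B, defined maximum growth. Because plates differed from one another, each plate's data were ranked separately and the compounds with the lowest OD600 were carried forward as hits.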

Test system: Salmonella enterica serovar Typhimurium SL1344
Assay: bacterial growth OD600 after 18 h with compound and polymyxin B; higher = more bacterial growth (less inhibition)
Conditions: 50 µM, Mueller-Hinton broth

Compound	bacterial growth OD600 (polymyxin B 0.75 µg/mL)	bacterial growth OD600 (polymyxin B 1 µg/mL)
O=C(CCc1ccccc1)Nc1ccnn1C1CCN(S(=O)(=O)c2cccnc2)CC1	0.806	
CSCCC(=O)N1CCC(C(=O)Nc2ccc(Oc3ccccc3F)cc2)CC1		0.73
CC(=O)C1CCCN(C(=O)c2cn(Cc3cccc(C(F)(F)F)c3)nn2)C1 (stereo not given)		0.872
O=C(c1csc2nc(-c3cccc(F)c3)cn12)N1CCCC(CN2CCCC2)C1 (stereo not given)		1.17
CN(Cc1ccc2nccnc2c1)Cc1c(C(=O)N(C)Cc2ccccc2)nc2ccccn12		1.08
COc1ccc(CN2CCOc3ccc(C(O)Cc4ccccc4)cc3C2)c(OC)c1OC (stereo not given)	0.674	
COc1cccc(CC(C2CCN(C(=O)/C=C/c3ccc(F)cc3)CC2)N(C)C(=O)CC(C)C)c1 (stereo not given)	0.002	
Cc1nc2cc(OCc3cc(C(=O)N4CCCCCCC4)no3)ccc2s1	0.004	
CC(C)CC(=O)Nc1ccnn1C1CCN(C(=O)C(=O)CC(C)C)CC1	0.861	
COC(=O)CCC(=O)NC1CCCN(CCc2ccccc2)C1 (stereo not given)		1.01
CCOC(=O)C1(Cc2ccccc2F)CCCN(C(=O)c2cc(C3CC3)on2)C1 (stereo not given)		0.005
CC1CN(C(=O)c2csc3nc(-c4ccc(C(F)(F)F)cc4)cn23)CCN1C (stereo not given)		0.987
COc1ccc(C(=O)N(C)CC2CCN(CCc3ccccc3OC)CC2)cc1F		1.21
O=C1CCC(C(=O)N2CCOc3ccccc3C2)CN1CCN1CCOCC1 (stereo not given)		0.742
CCC(=O)N[C@@H]1c2ccccc2C2(CCN(C(=O)c3ccc(C#CC(C)(C)O)cc3)CC2)[C@H]1OC	0.712	
Cc1oc(-c2ccc(C(F)(F)F)cc2)nc1CN1CCN(C(=O)c2ccco2)CC1		0.734
COc1cccc(C(C)N(C)C(=O)c2cn(Cc3ccc(Cl)cc3)nn2)c1 (stereo not given)		0.6
CSCCC(=O)N1CCC(C2CCN(CCc3ccccc3)CC2)C1 (stereo not given)		0.941
COc1ccc(OC2CCN(C3CCCC3)CC2)c(C(=O)NC2CCOC(C)(C)C2)c1 (stereo not given)		1.2
O=C(c1ccccc1)C1CCN(C(=O)C2CCC(=O)N(CCCc3ccccc3)C2)CC1 (stereo not given)		1.08
Cc1ncc2c(c1CNC(=O)c1ccsc1)CCN(C(=O)/C=C/c1ccc(Cl)cc1)C2	0.951	
CC(C)CCNC(=O)c1cn(C2CCCC2)cc(C(=O)N2CCN(c3ccccc3O)CC2)c1=O	0.876	
Cc1cc(C)cc(C(=O)N2CCC(CCC(=O)NC3CC3)CC2)c1		1.1
O=C(c1ccccn1)N1CCCC(CCc2ccc(F)cc2F)C1 (stereo not given)	0.906	
O=C(NC1CCCC1)c1ccc(N2CCC(NCCc3ccccc3Cl)CC2)cc1	0.727	
CCOC(=O)C1(Cc2ccc(F)cc2)CCCN(C(C)=O)C1 (stereo not given)		0.919
CO[C@H]1[C@H](NC(=O)COc2ccccc2)c2ccccc2C12CCN(C(=O)c1cccc(C)c1C)CC2	0.743	
O=C(CCOc1ccccc1)Nc1cnn(CC(=O)N2CCCC(COc3ccccc3F)C2)c1 (stereo not given)	0.679	
O[C@@H]1CN(C/C=C/c2ccc(F)cc2)CC[C@H]1N1CCN(c2ccccn2)CC1		0.948
CC#CCN1C(=O)NC(CCCc2ccccc2)(C2CCN(Cc3sccc3C)CC2)C1=O (stereo not given)	0.016	

Quoted from the listing:
COC(=O)CCC(=O)NC1CCCN(CCc2ccccc2)C1 (stereo not given) – bacterial growth OD600 (polymyxin B 1 µg/mL): 1.01
CCOC(=O)C1(Cc2ccc(F)cc2)CCCN(C(C)=O)C1 (stereo not given) – bacterial growth OD600 (polymyxin B 1 µg/mL): 0.919
